Source: the supplement of paper PMC10849652
This is one part of the list.

Amino acid sequences for entries named in this document (tags omitted). A change or cut given only in a name is not applied to a line headed by its entry.
UniProt Q9P281: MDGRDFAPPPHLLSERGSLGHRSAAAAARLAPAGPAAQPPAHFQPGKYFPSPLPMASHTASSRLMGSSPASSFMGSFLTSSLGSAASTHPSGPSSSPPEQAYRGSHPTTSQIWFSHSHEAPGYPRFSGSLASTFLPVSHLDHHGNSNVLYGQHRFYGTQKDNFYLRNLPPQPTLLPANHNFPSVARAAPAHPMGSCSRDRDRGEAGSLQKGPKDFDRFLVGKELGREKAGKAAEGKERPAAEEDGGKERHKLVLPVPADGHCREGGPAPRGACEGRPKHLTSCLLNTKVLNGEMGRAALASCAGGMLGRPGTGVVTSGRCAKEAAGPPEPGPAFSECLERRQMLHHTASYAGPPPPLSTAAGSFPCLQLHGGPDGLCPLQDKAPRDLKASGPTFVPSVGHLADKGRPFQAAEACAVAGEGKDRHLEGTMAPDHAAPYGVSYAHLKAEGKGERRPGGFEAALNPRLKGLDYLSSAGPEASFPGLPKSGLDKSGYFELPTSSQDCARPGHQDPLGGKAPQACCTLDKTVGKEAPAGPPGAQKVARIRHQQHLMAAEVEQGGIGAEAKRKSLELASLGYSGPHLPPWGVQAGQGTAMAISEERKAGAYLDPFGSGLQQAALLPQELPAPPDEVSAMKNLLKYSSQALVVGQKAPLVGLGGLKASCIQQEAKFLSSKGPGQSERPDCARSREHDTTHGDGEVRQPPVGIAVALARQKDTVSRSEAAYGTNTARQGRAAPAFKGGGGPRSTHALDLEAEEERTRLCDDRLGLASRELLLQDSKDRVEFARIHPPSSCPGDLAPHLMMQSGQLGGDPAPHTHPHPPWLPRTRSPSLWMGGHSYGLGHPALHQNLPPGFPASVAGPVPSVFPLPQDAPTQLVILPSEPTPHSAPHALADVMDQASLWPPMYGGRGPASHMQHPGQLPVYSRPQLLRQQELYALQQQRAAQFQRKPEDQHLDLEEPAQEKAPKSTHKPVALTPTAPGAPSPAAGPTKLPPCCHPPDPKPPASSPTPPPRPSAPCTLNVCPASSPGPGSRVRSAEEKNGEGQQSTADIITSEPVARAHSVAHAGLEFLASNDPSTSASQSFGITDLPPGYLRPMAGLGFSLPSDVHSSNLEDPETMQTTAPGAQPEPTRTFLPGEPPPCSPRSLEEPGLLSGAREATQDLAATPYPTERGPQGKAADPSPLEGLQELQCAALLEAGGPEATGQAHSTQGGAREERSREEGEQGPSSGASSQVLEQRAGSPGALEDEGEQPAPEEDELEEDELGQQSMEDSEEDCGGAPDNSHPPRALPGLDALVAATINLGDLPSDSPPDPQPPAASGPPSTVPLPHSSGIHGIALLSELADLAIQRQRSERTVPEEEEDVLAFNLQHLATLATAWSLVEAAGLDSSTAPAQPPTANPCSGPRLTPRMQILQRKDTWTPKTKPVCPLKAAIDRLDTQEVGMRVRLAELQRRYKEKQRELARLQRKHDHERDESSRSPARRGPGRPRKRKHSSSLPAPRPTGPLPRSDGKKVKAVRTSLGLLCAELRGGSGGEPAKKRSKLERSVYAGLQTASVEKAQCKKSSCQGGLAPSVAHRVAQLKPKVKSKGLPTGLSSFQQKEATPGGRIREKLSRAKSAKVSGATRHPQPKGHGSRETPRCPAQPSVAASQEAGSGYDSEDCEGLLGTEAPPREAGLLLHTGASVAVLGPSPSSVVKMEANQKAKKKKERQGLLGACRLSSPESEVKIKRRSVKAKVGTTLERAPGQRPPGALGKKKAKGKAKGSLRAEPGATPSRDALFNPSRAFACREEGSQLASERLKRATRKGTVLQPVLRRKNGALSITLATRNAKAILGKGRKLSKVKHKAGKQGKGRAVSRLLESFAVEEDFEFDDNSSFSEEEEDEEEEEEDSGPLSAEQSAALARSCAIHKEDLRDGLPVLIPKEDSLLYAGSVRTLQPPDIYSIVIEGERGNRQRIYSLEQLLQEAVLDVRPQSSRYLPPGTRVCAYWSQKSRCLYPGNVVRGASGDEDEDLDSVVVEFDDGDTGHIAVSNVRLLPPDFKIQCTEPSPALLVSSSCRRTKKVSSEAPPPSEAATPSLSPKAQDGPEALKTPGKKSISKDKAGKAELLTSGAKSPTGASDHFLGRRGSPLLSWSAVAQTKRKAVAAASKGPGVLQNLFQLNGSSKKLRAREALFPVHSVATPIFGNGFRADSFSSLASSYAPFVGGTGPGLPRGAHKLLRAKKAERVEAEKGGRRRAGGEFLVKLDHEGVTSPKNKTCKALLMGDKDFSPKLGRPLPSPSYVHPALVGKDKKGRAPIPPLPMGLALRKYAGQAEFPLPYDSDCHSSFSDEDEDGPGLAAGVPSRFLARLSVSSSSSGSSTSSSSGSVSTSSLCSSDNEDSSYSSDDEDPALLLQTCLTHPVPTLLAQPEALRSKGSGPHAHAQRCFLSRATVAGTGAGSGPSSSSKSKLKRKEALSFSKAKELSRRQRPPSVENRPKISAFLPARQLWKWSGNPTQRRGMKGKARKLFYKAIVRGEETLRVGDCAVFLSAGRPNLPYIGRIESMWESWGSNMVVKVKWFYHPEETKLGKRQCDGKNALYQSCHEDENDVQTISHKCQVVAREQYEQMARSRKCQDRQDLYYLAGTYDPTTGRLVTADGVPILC
UniProt Q9H3K6: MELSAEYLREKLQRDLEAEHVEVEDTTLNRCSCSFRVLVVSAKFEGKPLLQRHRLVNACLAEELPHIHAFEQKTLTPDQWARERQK
UniProt Q8TDN6: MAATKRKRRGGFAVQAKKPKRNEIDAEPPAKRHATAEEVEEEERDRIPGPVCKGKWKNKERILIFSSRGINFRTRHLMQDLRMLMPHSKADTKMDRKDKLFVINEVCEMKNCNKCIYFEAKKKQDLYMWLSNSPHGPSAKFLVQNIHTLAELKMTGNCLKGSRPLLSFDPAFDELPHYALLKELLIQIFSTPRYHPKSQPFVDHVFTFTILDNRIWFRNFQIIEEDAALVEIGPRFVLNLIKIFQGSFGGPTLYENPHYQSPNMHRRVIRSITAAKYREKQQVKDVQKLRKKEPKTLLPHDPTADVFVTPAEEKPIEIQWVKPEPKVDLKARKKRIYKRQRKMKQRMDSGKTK
UniProt Q8WUW1: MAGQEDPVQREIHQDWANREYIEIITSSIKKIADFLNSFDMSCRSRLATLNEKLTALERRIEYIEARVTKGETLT
UniProt Q14457, whole entry, looked up: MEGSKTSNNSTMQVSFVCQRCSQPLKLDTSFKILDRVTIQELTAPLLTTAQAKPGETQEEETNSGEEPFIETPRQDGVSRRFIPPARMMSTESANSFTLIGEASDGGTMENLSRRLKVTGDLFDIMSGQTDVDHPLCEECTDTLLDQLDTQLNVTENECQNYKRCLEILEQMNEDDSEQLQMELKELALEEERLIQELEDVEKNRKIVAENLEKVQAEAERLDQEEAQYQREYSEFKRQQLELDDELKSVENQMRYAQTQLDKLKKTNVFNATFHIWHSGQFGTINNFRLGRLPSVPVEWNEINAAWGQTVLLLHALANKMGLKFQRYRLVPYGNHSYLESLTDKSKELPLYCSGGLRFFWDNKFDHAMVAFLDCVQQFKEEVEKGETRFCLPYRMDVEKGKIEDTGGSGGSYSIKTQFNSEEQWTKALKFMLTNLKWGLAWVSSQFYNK
UniProt Q9NY97: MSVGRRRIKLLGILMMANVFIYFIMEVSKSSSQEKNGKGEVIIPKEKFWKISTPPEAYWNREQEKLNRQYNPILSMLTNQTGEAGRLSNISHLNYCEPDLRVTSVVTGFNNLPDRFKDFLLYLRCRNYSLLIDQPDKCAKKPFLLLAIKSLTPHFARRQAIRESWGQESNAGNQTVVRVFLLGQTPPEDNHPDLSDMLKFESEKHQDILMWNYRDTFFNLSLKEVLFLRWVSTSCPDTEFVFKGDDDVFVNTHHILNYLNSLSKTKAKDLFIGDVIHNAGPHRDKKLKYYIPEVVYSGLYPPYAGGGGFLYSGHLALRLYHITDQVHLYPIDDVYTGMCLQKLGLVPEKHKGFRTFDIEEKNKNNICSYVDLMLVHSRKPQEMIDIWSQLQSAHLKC
UniProt P46736, whole entry, looked up: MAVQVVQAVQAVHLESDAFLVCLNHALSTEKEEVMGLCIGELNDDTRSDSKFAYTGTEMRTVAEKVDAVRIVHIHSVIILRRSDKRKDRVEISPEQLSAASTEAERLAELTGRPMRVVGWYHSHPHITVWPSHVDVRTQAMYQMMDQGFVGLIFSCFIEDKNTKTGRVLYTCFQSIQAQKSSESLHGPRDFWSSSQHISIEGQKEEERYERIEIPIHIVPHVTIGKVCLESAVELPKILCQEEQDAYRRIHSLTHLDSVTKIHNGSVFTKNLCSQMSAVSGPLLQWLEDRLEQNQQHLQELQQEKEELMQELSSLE
UniProt Q9BXK5, whole entry, looked up: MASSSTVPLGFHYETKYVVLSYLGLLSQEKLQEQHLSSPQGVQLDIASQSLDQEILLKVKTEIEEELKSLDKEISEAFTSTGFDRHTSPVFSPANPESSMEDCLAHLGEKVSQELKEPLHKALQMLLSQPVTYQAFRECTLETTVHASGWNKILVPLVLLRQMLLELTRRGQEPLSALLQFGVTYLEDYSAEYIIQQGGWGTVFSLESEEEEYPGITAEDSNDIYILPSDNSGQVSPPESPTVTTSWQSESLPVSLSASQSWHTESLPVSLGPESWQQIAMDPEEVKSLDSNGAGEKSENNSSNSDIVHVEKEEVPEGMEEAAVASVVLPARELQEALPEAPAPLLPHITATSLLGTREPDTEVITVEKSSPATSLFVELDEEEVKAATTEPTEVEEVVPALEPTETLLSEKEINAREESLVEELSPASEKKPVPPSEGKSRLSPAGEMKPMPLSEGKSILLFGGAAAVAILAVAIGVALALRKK
UniProt P15291: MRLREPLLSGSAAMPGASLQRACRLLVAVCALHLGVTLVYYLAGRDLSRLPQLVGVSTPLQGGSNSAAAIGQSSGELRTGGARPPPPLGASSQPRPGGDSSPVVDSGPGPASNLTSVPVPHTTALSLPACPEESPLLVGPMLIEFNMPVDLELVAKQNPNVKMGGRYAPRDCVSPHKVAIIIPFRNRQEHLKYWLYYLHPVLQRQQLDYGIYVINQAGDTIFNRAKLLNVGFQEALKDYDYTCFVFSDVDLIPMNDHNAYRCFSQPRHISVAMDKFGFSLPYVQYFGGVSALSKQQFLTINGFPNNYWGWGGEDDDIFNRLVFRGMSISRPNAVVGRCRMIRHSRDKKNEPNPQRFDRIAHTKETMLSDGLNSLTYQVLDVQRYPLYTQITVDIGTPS
UniProt Q15059, whole entry, looked up: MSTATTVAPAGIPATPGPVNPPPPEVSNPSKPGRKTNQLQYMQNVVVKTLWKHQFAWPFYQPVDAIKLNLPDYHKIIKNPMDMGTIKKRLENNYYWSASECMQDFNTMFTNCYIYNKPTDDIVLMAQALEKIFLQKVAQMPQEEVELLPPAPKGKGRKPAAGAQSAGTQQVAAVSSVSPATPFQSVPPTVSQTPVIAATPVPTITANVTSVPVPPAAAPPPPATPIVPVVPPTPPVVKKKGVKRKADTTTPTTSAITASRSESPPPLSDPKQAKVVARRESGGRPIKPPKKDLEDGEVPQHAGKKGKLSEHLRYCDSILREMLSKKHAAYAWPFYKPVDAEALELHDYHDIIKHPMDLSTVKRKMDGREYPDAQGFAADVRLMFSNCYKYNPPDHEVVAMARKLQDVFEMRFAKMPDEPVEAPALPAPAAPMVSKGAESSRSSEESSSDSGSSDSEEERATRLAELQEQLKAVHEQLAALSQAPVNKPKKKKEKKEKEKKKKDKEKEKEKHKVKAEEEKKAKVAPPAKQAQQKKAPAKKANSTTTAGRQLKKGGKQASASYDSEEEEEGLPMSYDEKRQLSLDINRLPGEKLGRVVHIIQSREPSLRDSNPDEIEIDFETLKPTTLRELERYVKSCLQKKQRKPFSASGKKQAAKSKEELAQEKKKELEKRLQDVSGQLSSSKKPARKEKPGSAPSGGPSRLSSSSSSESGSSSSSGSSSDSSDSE
UniProt Q96L58: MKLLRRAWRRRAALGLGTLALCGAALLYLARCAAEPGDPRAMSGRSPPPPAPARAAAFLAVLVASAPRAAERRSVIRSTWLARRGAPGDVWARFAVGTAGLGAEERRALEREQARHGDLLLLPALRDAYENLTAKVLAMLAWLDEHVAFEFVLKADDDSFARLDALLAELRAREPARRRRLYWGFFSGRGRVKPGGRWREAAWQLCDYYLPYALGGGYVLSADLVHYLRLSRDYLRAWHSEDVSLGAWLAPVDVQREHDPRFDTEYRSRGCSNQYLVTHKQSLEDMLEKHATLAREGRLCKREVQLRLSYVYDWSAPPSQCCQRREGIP
UniProt Q9NWV8, whole entry, looked up: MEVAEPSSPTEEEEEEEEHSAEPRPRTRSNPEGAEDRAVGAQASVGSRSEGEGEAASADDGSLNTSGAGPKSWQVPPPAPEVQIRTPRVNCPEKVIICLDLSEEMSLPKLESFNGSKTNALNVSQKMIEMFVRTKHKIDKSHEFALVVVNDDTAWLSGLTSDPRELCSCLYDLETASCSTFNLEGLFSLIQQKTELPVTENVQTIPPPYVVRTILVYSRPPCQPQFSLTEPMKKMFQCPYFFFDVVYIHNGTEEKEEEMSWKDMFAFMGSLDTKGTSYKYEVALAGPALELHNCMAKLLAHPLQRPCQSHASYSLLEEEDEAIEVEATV

How the values were obtained:
Test in all cases: log2 fold change, soluble protein after heating vs DMSO (PISA); higher = thermal stabilisation; K562 cells, 10 uM, 30 min; active = over 0.2 and 3.5 SD of the protein, either way, in both replicates (recomputed)
[1] = compound: COC1=CC=C(C=C1)CN2C=CC3=C2C=C(C=C3)C(=O)NO
Method in brief: (§1)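 K562 cells at 2×10^6 cells/mL were exposed to 10 μM compound for 30 min, then aliquots were heated for 3 min across 48°C-58°C, pooled, and extracted in PBS containing 0.5% NP-40 at 4°C. The supernatant after 21,000xg for 90 min was taken as soluble protein and measured by TMTpro 16plex LC-MS/MS with channel sums equalised. Thermal stability is reported relative to control samples, with values from duplicates. Fold changes are given on a log2 scale.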

[2] = compound: CON(C)C(=O)N1N=C(c2cc(F)ccc2F)S[C@@]1(CCCN)c1ccccc1 [filanesib]
Method in brief: as §1

[3] = compound: CO[C@H]1C[C@@H]2CC[C@@H](C)[C@@](O)(O2)C(=O)C(=O)N2CCCC[C@H]2C(=O)O[C@H]([C@H](C)C[C@@H]2CC[C@H](n3cnnn3)[C@H](OC)C2)CC(=O)[C@H](C)/C=C(\C)[C@@H](O)[C@@H](OC)C(=O)[C@H](C)C[C@H](C)/C=C/C=C/C=C/1C [zotarolimus]
Method in brief: as §1

[4] = compound: COc1cc(C(=O)O)ccc1NC(=O)[C@@H]1N[C@@H](CC(C)(C)C)[C@](C#N)(c2ccc(Cl)cc2F)[C@H]1c1cccc(Cl)c1F [idasanutlin]
Method in brief: as §1

[5] = compound: COc1cc(Nc2ncc3c(n2)-c2ccc(Cl)cc2C(c2c(F)cccc2OC)=NC3)ccc1C(=O)O [alisertib]
Method in brief: as §1

[6] = compound: COc1cc2nc(-c3cc(F)ccc3O)nc(N[C@@H]3CNC[C@H]3C(C)(C)O)c2cc1OC
Method in brief: as §1

[7] = compound: COc1cc2ncnc(Nc3ccc(F)c(Cl)c3)c2cc1OCCCN1CCOCC1 [gefitinib]
Method in brief: as §1

[8] = compound: COc1cccc2cc(-c3nc([C@H]4CC[C@H](C(=O)O)CC4)n4ncnc(N)c34)[nH]c12
Method in brief: as §1

[9] = compound: CS(=O)(=O)CCNCc1ccc(-c2ccc3ncnc(Nc4ccc(OCc5cccc(F)c5)c(Cl)c4)c3c2)o1 [lapatinib]
Method in brief: as §1

[10] = compound: CS(=O)(=O)N1CCN(Cc2cc3nc(-c4cccc5[nH]ncc45)nc(N4CCOCC4)c3s2)CC1 [pictilisib]
Method in brief: as §1

Target | log2 fold change [1] | log2 fold change [2] | log2 fold change [3] | log2 fold change [4] | log2 fold change [5] | log2 fold change [6] | log2 fold change [7] | log2 fold change [8] | log2 fold change [9] | log2 fold change [10]
BPHL (UniProt Q86WA6) | inactive: -0.118 | inactive: -0.018 | inactive: 0.017 | inactive: -0.007 | inactive: 0.004 | inactive: 0.081 | inactive: 0.049 | inactive: -0.056 | inactive: -0.033 | inactive: 0.033
BCAP29 isoform 2 (UniProt Q9UHQ4) | inactive: -0.033 | inactive: -0.047 | inactive: -0.022 | inactive: 0.027 | inactive: -0.023 | inactive: -0.1 | inactive: 0.035 | inactive: 0.035 | inactive: -0.009 | inactive: -0.027
BMS1 (UniProt Q14692) | inactive: -0.04 | inactive: 0.182 | inactive: 0.074 | inactive: 0.128 | inactive: -0.088 | inactive: 0 | inactive: -0.024 | inactive: -0.145 | inactive: 0.133 | inactive: -0.086
BAHCC1 (UniProt Q9P281) | inactive: -0.443 | inactive: 0.032 | inactive: 0 | inactive: -0.042 | inactive: 1.11 | inactive: 0.239 | inactive: 0.054 | inactive: 0.207 | inactive: -0.227 | inactive: 0.164
BICD1 (UniProt Q96G01) | inactive: -0.02 | inactive: 0.038 | inactive: 0.071 | inactive: 0.035 | inactive: 0.04 | inactive: 0.019 | inactive: -0.004 | inactive: -0.105 | inactive: 0.022 | inactive: 0.12
BPNT1 (UniProt O95861) | inactive: 0.022 | inactive: -0.046 | inactive: -0.005 | inactive: -0.017 | inactive: 0.157 | inactive: 0.023 | inactive: 0.015 | inactive: 0.026 | inactive: -0.003 | inactive: 0.065
BAG1 (UniProt Q99933) | inactive: 0.059 | inactive: -0.058 | inactive: -0.074 | inactive: 0.01 | inactive: -0.028 | inactive: 0.053 | inactive: -0.022 | inactive: 0.004 | inactive: -0.011 | inactive: -0.017
BNIP2 (UniProt J3KN59) | inactive: 0 | inactive: -0.103 | inactive: 0.036 | inactive: -0.075 | inactive: 0.05 | inactive: -0.08 | inactive: 0.511 | inactive: 0.138 | inactive: 0.011 | inactive: 0.004
BOLA2 (UniProt Q9H3K6) | inactive: -0.042 | inactive: -0.005 | inactive: -0.01 | inactive: -0.061 | inactive: -0.102 | inactive: -0.037 | inactive: -0.001 | inactive: 0.006 | inactive: -0.01 | inactive: 0.045
ATR (UniProt Q13535) | active: -0.267 | inactive: 0.019 | inactive: 0.057 | inactive: -0.067 | inactive: -0.05 | inactive: 0.031 | inactive: 0.019 | inactive: 0 | inactive: 0.039 | inactive: 0.112
B4GALT3 (UniProt O60512) | inactive: 0.14 | inactive: 0.027 | inactive: -0.05 | inactive: 0.059 | inactive: -0.052 | inactive: -0.029 | inactive: -0.065 | inactive: 0 | inactive: 0.087 | inactive: 0.005
BAG4 (UniProt O95429) | inactive: 0.025 | inactive: 0.001 | inactive: 0 | inactive: 0.018 | inactive: -0.003 | inactive: -0.064 | inactive: 0.032 | inactive: 0.044 | inactive: -0.001 | inactive: 0.047
BRIX1 (UniProt Q8TDN6) | inactive: -0.006 | inactive: 0.574 | inactive: 0.132 | inactive: 0.397 | inactive: -0.23 | inactive: -0.224 | inactive: -0.039 | inactive: -0.193 | inactive: 0.218 | inactive: -0.004
BRK1 isoform 2 (UniProt Q8WUW1) | inactive: 0.113 | inactive: 0.127 | inactive: -0.049 | inactive: 0.031 | inactive: -0.076 | inactive: -0.07 | inactive: 0.05 | inactive: -0.041 | inactive: -0.032 | inactive: 0.018
BCKDHB (UniProt P21953) | inactive: -0.011 | inactive: -0.091 | inactive: -0.057 | inactive: -0.035 | inactive: 0.022 | inactive: -0.042 | inactive: 0.059 | inactive: 0.007 | inactive: -0.029 | inactive: 0.178
BECN1 (UniProt Q14457) | inactive: 0.094 | inactive: -0.005 | inactive: -0.142 | inactive: -0.159 | inactive: -0.081 | inactive: 0.117 | inactive: 0 | inactive: -0.045 | inactive: 0.008 | inactive: 0.086

Target | log2 fold change [1] | log2 fold change [2] | log2 fold change [3] | log2 fold change [4] | log2 fold change [5] | log2 fold change [6] | log2 fold change [7] | log2 fold change [8] | log2 fold change [9] | log2 fold change [10]
BCCIP isoform 2 (UniProt Q9P287) | inactive: -0.059 | inactive: 0.05 | inactive: -0.002 | inactive: -0.021 | inactive: 0.024 | inactive: 0.021 | inactive: 0 | inactive: 0.026 | inactive: -0.007 | inactive: -0.021
BCOR (UniProt Q6W2J9) | inactive: -0.487 | inactive: 0.136 | inactive: -0.294 | – | – | – | – | – | – | –
B3GNT2 (UniProt Q9NY97) | inactive: -0.014 | inactive: 0.062 | inactive: -0.011 | inactive: 0.054 | inactive: -0.087 | inactive: -0.042 | inactive: -0.093 | inactive: 0.058 | inactive: -0.033 | inactive: 0.063
BLOC1S2 (UniProt Q6QNY1) | inactive: 0.182 | inactive: 0.041 | inactive: 0.013 | inactive: 0.159 | inactive: 0.009 | inactive: -0.176 | inactive: 0.02 | inactive: 0.035 | inactive: 0.112 | inactive: 0.037
BRCC3 (UniProt P46736) | inactive: 0.035 | inactive: 0.016 | inactive: -0.028 | inactive: 0.016 | inactive: -0.073 | inactive: -0.023 | inactive: -0.03 | inactive: 0.008 | inactive: -0.016 | inactive: -0.067
BLMH (UniProt Q13867) | inactive: -0.036 | inactive: -0.029 | inactive: 0.022 | inactive: 0.011 | inactive: 0.31 | inactive: -0.061 | inactive: 0.011 | inactive: -0.04 | inactive: -0.125 | inactive: 0.007
BCL2L13 (UniProt Q9BXK5) | inactive: -0.001 | inactive: -0.12 | inactive: 0.065 | inactive: -0.026 | inactive: -0.047 | inactive: 0.002 | inactive: -0.028 | inactive: 0.06 | inactive: 0.008 | inactive: 0.016
B4GALT1 (UniProt P15291) | inactive: -0.04 | inactive: 0.014 | inactive: 0.067 | inactive: 0 | inactive: 0.051 | inactive: -0.037 | inactive: 0.022 | inactive: 0.021 | inactive: 0.042 | inactive: 0.128
BRAP (UniProt Q7Z569) | inactive: 0.062 | inactive: 0.02 | inactive: 0.01 | inactive: 0.028 | inactive: -0.058 | inactive: -0.108 | inactive: 0.053 | inactive: -0.134 | inactive: 0.073 | inactive: -0.055
B3GNTL1 (UniProt Q67FW5) | inactive: -0.033 | inactive: -0.006 | inactive: -0.009 | inactive: -0.05 | inactive: -0.028 | inactive: 0.099 | inactive: -0.04 | inactive: 0.023 | inactive: 0.028 | inactive: 0.008
BLOC1S6 (UniProt Q9UL45) | inactive: 0.019 | inactive: -0.078 | inactive: -0.004 | inactive: -0.11 | inactive: -0.035 | inactive: 0.025 | inactive: -0.114 | inactive: 0.111 | inactive: 0.094 | –
BRD3 (UniProt Q15059) | inactive: 0.027 | inactive: 0.297 | inactive: -0.077 | inactive: -0.012 | inactive: -0.035 | inactive: 0.086 | inactive: 0.227 | inactive: -0.002 | inactive: -0.057 | inactive: 0.081
B3GALT6 (UniProt Q96L58) | inactive: -0.028 | – | – | – | – | – | – | – | – | –
BABAM1 (UniProt Q9NWV8) | inactive: 0.154 | inactive: 0.052 | inactive: -0.001 | inactive: 0.021 | inactive: -0.053 | inactive: -0.045 | inactive: 0.031 | inactive: 0.028 | inactive: 0.009 | inactive: -0.094
BLM (UniProt P54132) | inactive: -0.082 | inactive: 0.011 | inactive: -0.011 | inactive: -0.15 | inactive: -0.018 | inactive: 0.047 | inactive: -0.014 | inactive: 0.036 | inactive: -0.019 | –

Two entries from above in another layout.
Target	log2 fold change [1]	log2 fold change [2]	log2 fold change [3]	log2 fold change [4]	log2 fold change [5]	log2 fold change [6]	log2 fold change [7]	log2 fold change [8]	log2 fold change [9]	log2 fold change [10]
BCCIP isoform 2 (UniProt Q9P287)	inactive: -0.059	inactive: 0.05	inactive: -0.002	inactive: -0.021	inactive: 0.024	inactive: 0.021	inactive: 0	inactive: 0.026	inactive: -0.007	inactive: -0.021
BCOR (UniProt Q6W2J9)	inactive: -0.487	inactive: 0.136	inactive: -0.294	–	–	–	–	–	–	–
